Results published in patent publication US20050131238A1, “Spermicides” (SSL International plc, priority 2001, published 2005).

Tested on: ME180 cells versus human sperm
Assay: Therapeutic index (ratio of cell cytotoxicity EC50 to spermicidal efficacy ED50)
Experimental: 3. Determination of Therapeutic Index
The therapeutic index is the ratio of cell cytoxicity EC50 datum to the spermicidal efficacy ED50 datum and is calculated using the data obtained in methods 1 and 2 above using the following formula: [formula] Test Compounds

SMILES: O=C1C=CC(=O)N1c1ccccc1 [Compound 1]
- TI (therapeutic index): 12

SMILES: CCOC(=O)c1ccc(N2C(=O)C=CC2=O)cc1 [Compound 3]
- TI (therapeutic index): 5

SMILES: O=C1C=CC(=O)N1C1CCCCC1 [Compound 5]
- TI (therapeutic index): 0.4

SMILES: COC(=O)c1scc(C)c1N1C(=O)C=CC1=O [Compound 6]
- TI (therapeutic index): 3

SMILES: O=C1C=CC(=O)N1c1ccc2c(c1)OCCO2 [Compound 7]
- TI (therapeutic index): 10

SMILES: Cc1cc(N2C(=O)C=CC2=O)no1 [Compound 8]
- TI (therapeutic index): 11

SMILES: N#Cc1cccc(N2C(=O)C=CC2=O)c1 [Compound 9]
- TI (therapeutic index): 2.6

SMILES: O=C1C=CC(=O)N1CCN1C(=O)C=CC1=O [Compound 10]
- TI (therapeutic index): 129

SMILES: O=C1C=CC(=O)N1c1ccc(-c2ccc(N3C(=O)C=CC3=O)cc2)cc1 [Compound 11]
- TI (therapeutic index): >21

SMILES: O=C1C=CC(=O)N1CCOCCOCCOCCN1C(=O)C=CC1=O [Compound 12]
- TI (therapeutic index): 32

SMILES: O=C1C=CC(=O)N1c1ccc(OCCOCCOCCOCCOCCOc2ccc(N3C(=O)C=CC3=O)cc2)cc1 [Compound 13]
- TI (therapeutic index): 27

SMILES: COCCOCCOCCOCCOc1ccc(N2C(=O)C=CC2=O)cc1 [Compound 14]
- TI (therapeutic index): 2

SMILES: O=C1C=CC(=O)N1c1ccc(OCCOCCOCCOCCOc2ccc(N3C(=O)C=CC3=O)cc2)cc1 [Compound 15]
- TI (therapeutic index): 31
